Source: the supplement of paper PMC12823440, “Inhibitors supercharge kinase turnover through native proteolytic circuits” (Nature, 2025)
Counter-ions that a name gives are not always drawn. This is one part of the list. The calls rarely recur for the same compound in another form.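 In K562 cells expressing nanoluciferase-fused kinases, luminescence was recorded at 4 h intervals between 2 and 18 h, normalized as percent of control with DMSO at 100% and a positive control at 0%. A significant (2 sigma) signal drop marks a time point as decreased. The authors' rule for a hit is not shown and takes in more than the number of time points.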

Sequences of proteins named here, by UniProt entry; tags and fusion partners are left off. A change or cut given only in a name is not applied to a line headed by its entry.
UniProt Q9BUB5: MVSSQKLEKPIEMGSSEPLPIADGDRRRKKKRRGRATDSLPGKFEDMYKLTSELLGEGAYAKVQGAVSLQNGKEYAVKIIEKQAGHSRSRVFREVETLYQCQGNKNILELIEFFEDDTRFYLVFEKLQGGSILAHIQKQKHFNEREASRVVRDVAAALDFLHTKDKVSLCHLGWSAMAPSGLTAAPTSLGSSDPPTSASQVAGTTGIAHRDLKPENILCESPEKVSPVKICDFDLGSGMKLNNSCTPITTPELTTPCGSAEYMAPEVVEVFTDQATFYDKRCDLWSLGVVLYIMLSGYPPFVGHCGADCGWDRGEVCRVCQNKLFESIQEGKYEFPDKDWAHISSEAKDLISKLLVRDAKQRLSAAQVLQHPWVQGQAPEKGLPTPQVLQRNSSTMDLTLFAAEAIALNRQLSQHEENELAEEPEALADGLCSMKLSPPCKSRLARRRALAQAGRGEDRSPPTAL
UniProt Q16288, whole entry, looked up: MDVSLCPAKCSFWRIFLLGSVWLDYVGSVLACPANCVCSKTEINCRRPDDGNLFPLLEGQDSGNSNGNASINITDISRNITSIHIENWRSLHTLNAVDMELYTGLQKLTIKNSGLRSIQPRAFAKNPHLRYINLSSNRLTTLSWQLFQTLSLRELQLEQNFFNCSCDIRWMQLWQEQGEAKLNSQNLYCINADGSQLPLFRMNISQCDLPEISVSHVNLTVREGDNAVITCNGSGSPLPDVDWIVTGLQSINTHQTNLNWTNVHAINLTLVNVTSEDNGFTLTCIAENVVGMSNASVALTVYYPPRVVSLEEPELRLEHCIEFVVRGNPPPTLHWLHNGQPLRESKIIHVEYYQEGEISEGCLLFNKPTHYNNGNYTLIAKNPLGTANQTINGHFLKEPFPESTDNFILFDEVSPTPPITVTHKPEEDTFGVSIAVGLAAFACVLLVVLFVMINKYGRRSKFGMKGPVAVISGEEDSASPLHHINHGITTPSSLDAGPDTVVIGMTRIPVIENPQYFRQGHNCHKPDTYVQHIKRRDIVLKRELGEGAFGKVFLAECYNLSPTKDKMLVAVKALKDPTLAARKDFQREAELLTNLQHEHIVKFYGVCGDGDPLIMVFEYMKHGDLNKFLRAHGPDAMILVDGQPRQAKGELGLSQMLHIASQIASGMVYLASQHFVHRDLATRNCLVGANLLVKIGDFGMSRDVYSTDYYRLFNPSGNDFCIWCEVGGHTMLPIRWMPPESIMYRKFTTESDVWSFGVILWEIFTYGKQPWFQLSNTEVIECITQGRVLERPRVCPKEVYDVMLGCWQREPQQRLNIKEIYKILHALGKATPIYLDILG
UniProt O96013: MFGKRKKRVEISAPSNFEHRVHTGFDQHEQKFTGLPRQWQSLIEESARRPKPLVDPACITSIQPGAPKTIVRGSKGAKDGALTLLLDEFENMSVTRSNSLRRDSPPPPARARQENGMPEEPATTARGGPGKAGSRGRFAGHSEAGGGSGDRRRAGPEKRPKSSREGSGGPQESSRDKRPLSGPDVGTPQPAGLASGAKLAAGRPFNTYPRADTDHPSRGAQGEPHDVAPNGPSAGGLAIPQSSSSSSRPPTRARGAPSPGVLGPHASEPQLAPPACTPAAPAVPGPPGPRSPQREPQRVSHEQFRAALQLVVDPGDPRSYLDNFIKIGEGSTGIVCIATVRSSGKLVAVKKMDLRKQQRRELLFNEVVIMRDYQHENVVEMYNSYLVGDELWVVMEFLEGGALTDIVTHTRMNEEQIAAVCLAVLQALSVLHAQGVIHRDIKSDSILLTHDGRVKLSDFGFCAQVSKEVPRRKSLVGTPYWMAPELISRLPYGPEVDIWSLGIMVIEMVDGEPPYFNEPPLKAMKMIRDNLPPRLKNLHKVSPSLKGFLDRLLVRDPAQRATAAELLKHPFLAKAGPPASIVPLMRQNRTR
UniProt Q96KB5: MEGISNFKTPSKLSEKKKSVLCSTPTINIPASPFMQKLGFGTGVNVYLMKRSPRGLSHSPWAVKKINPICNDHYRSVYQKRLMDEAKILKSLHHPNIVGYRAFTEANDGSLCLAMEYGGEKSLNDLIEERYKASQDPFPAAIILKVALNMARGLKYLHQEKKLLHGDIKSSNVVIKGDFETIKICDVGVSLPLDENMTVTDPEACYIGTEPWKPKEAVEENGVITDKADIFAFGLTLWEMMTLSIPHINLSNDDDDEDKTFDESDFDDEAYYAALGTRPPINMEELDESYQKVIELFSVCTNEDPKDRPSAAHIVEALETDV
UniProt Q15118, whole entry, looked up: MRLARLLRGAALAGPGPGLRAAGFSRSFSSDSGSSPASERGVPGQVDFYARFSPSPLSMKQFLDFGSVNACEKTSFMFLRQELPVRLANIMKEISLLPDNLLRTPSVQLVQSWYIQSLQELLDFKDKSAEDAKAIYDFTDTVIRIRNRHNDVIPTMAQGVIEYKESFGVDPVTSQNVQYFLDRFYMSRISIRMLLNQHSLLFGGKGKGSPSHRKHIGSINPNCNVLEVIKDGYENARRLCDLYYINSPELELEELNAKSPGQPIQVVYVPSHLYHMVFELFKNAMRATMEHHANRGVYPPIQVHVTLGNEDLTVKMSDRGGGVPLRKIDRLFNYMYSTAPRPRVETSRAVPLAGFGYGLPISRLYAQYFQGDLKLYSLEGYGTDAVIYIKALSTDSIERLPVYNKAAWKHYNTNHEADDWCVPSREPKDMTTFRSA
UniProt P42356, whole entry, looked up: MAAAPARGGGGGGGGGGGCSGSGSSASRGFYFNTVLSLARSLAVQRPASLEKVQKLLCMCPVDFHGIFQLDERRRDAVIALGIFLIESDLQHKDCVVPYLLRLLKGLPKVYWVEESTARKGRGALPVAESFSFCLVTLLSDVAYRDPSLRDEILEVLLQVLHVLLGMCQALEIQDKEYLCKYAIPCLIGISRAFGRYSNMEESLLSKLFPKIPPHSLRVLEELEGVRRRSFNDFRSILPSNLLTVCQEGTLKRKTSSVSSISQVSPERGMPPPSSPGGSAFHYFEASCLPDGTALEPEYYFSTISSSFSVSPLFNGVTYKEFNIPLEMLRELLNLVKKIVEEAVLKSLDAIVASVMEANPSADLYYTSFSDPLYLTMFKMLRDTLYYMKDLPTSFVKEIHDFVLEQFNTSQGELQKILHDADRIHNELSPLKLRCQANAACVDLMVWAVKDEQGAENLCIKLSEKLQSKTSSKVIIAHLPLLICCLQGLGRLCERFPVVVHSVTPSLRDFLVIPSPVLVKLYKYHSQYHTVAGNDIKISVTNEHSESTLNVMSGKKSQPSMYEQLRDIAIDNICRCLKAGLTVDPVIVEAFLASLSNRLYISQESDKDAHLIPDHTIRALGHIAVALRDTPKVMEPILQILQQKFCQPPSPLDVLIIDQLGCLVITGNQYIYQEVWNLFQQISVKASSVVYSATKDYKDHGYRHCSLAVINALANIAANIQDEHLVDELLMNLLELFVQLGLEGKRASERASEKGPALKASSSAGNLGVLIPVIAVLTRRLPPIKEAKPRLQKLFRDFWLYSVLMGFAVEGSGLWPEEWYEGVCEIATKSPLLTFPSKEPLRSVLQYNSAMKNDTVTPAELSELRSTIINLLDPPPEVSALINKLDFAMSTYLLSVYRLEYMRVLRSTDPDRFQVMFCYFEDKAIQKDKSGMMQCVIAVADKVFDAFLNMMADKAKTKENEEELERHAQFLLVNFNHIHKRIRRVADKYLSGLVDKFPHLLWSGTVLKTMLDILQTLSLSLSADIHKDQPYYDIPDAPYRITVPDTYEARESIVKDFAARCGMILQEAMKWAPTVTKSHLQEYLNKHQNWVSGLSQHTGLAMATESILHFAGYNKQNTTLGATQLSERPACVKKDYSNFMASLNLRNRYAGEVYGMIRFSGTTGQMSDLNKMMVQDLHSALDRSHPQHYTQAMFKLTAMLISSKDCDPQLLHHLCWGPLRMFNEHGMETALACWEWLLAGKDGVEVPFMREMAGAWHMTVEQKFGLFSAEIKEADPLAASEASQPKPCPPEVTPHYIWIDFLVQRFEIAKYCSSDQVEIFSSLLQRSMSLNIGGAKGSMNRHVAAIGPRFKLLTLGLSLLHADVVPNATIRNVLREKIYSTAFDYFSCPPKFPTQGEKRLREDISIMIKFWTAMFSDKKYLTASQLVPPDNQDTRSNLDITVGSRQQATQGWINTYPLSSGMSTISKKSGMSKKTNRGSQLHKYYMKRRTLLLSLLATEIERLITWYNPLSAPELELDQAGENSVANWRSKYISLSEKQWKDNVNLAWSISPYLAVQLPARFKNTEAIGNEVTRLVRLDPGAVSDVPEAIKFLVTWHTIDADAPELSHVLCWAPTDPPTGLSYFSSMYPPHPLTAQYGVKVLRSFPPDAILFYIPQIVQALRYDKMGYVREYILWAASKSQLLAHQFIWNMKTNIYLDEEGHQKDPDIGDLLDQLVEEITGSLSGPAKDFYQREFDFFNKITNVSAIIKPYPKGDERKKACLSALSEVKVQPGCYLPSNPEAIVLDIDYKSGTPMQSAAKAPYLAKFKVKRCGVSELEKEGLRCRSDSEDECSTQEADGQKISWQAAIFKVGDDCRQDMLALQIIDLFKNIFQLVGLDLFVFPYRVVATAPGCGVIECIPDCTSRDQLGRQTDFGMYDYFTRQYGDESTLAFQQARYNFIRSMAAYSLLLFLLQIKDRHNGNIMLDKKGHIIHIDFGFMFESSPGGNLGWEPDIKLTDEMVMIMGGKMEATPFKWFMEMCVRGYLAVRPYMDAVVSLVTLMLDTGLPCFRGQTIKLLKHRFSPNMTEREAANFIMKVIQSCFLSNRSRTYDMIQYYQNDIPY
UniProt P53350, whole entry: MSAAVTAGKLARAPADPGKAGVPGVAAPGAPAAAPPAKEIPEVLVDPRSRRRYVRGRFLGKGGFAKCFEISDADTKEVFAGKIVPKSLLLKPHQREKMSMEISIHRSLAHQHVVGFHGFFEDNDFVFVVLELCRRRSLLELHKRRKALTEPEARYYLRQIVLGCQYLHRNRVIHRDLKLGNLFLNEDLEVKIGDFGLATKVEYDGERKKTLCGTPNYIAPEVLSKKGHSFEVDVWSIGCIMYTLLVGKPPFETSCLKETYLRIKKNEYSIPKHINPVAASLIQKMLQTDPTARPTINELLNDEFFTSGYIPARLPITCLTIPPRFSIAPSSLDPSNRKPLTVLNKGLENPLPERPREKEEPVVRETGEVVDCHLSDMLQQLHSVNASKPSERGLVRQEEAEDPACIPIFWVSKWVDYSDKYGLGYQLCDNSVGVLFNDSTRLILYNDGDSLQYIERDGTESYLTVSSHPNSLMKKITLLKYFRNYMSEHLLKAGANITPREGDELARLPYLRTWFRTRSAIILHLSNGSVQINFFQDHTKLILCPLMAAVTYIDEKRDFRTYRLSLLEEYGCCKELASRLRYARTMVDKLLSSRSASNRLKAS
UniProt Q13131: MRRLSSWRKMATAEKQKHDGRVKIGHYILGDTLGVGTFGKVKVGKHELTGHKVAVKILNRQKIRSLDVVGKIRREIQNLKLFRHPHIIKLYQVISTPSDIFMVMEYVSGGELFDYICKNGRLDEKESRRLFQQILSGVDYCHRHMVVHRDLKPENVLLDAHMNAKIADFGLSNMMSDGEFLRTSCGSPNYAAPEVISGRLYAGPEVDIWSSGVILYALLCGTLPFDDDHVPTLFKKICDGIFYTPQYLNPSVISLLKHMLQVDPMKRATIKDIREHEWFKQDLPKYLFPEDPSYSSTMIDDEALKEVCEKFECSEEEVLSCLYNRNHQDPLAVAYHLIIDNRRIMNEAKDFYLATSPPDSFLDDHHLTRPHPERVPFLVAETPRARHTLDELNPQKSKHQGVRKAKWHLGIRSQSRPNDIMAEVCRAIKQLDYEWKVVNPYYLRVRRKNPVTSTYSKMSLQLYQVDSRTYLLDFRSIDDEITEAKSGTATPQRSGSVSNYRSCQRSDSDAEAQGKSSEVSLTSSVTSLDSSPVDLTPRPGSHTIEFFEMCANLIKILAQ

Experiments:
Experiment in all cases: kinase-Nluc reporter destabilization hit call (1 = scored as downregulated) (binary); higher = compound decreases kinase abundance
Settings in all cases: K562; 2-18 h
MAPK1 = MAPK1 (UniProt P28482)
MAPK4 = MAPK4 (UniProt P31152)
MAPKAPK2 = MAPKAPK2 (UniProt P49137)
MKNK1 = MKNK1 (UniProt Q9BUB5)
NTRK2 = NTRK2 (UniProt Q16620)
NTRK3 = NTRK3 (UniProt Q16288)
PAK4 = PAK4 (UniProt O96013)
PBK = PBK (UniProt Q96KB5)
PDGFRB = PDGFRB (UniProt P09619)
PDK1 = PDK1 (UniProt Q15118)
PDPK1 = PDPK1 (UniProt O15530)
PIK4CA = PIK4CA (UniProt P42356)
PIK4CB = PIK4CB (UniProt Q9UBF8)
PLK1 = PLK1 (UniProt P53350)
PRKAA1 = PRKAA1 (UniProt Q13131)
PRKCA = PRKCA (UniProt P17252)
PTK2 = PTK2 (UniProt Q05397)
PTK2B = PTK2B (UniProt Q14289)
RAF1 = RAF1 (UniProt P04049)
[1] = biological target: RAF1_S257L (clone: RAF1_mut) (UniProt P04049)

Measured: kinase-Nluc reporter destabilization hit call

COc1ccc(-c2cc(=O)c3c(O)cc(O)cc3o2)cc1-c1c(O)cc(O)c2c(=O)cc(-c3ccc(O)cc3)oc12 [Bilobetin] (2.5 µM)
inactive: MAPK1 = 0 | MAPK4 = 0 | MAPKAPK2 = 0 | MKNK1 = 0 | NTRK2 = 0 | NTRK3 = 0 | PAK4 = 0 | PBK 0 | PDGFRB 0 | PDK1 = 0 | PDPK1 = 0 | PIK4CA 0 | PIK4CB 0 | PLK1 = 0 | PRKAA1 = 0 | PRKCA 0 | PTK2 = 0 | PTK2B 0 | RAF1 = 0 | [1] 0

O=C1OC(COc2ccccc2[N+](=O)[O-])CC1Cc1ccccc1 (stereo not given) (10 µM)
inactive: MAPK1 = 0 | MAPK4 = 0 | MAPKAPK2 = 0 | MKNK1 = 0 | NTRK2 = 0 | NTRK3 = 0 | PAK4 = 0 | PBK 0 | PDGFRB 0 | PDK1 = 0 | PDPK1 = 0 | PIK4CA 0 | PIK4CB 0 | PLK1 = 0 | PRKAA1 = 0 | PRKCA 0 | PTK2 = 0 | PTK2B 0 | RAF1 = 0 | [1] 0

CC(C)n1cnc2c(Nc3cccc(Cl)c3)nc(N[C@H]3CCCC[C@@H]3N)nc21 (2.5 µM)
inactive: MAPK1 = 0 | MAPK4 = 0 | MAPKAPK2 = 0 | MKNK1 = 0 | NTRK2 = 0 | NTRK3 = 0 | PAK4 = 0 | PBK 0 | PDGFRB 0 | PDK1 = 0 | PDPK1 = 0 | PIK4CA 0 | PIK4CB 0 | PLK1 = 0 | PRKAA1 = 0 | PRKCA 0 | PTK2 = 0 | PTK2B 0 | RAF1 = 0 | [1] 0

Cc1ncc(-c2cc(F)c(O)c(F)c2)cc1-c1cc(F)c(O)c(F)c1 (10 µM)
inactive: MAPK1 = 0 | MAPK4 = 0 | MAPKAPK2 = 0 | MKNK1 = 0 | NTRK2 = 0 | NTRK3 = 0 | PAK4 = 0 | PBK 0 | PDGFRB 0 | PDK1 = 0 | PDPK1 = 0 | PIK4CA 0 | PIK4CB 0 | PLK1 = 0 | PRKAA1 = 0 | PRKCA 0 | PTK2 = 0 | PTK2B 0 | RAF1 = 0 | [1] 0

COc1ccc(Cl)cc1N(CC(=O)Nc1ccc2c(c1)OCO2)S(=O)(=O)c1ccccc1 (2.5 µM)
inactive: MAPK1 = 0 | MAPK4 = 0 | MAPKAPK2 = 0 | MKNK1 = 0 | NTRK2 = 0 | NTRK3 = 0 | PAK4 = 0 | PBK 0 | PDGFRB 0 | PDK1 = 0 | PDPK1 = 0 | PIK4CA 0 | PIK4CB 0 | PLK1 = 0 | PRKAA1 = 0 | PRKCA 0 | PTK2 = 0 | PTK2B 0 | RAF1 = 0 | [1] 0

CCCCNc1ncc(C(=O)NCc2ccc(-n3ccnc3)cc2)c(NC2CCC(O)CC2)n1 (stereo not given) (10 µM)
inactive: MAPK1 = 0 | MAPK4 = 0 | MAPKAPK2 = 0 | MKNK1 = 0 | NTRK2 = 0 | NTRK3 = 0 | PAK4 = 0 | PBK 0 | PDGFRB 0 | PDK1 = 0 | PDPK1 = 0 | PIK4CA 0 | PIK4CB 0 | PLK1 = 0 | PRKAA1 = 0 | PRKCA 0 | PTK2 = 0 | PTK2B 0 | RAF1 = 0 | [1] 0

COc1ccc2nc3ccc(OC)cc3c(SCCCN)c2c1 (10 µM)
inactive: MAPK1 = 0 | MAPK4 = 0 | MAPKAPK2 = 0 | MKNK1 = 0 | NTRK2 = 0 | NTRK3 = 0 | PAK4 = 0 | PBK 0 | PDGFRB 0 | PDK1 = 0 | PDPK1 = 0 | PIK4CA 0 | PIK4CB 0 | PLK1 = 0 | PRKAA1 = 0 | PRKCA 0 | PTK2 = 0 | PTK2B 0 | RAF1 = 0
active: [1] 1

COc1cc2nc(NC3CC3)nc(NC3CCN(C(C)C)CC3)c2cc1OC (10 µM)
inactive: MAPK1 = 0 | MAPK4 = 0 | MAPKAPK2 = 0 | MKNK1 = 0 | NTRK2 = 0 | NTRK3 = 0 | PAK4 = 0 | PBK 0 | PDGFRB 0 | PDK1 = 0 | PDPK1 = 0 | PIK4CA 0 | PIK4CB 0 | PLK1 = 0 | PRKAA1 = 0 | PRKCA 0 | PTK2 = 0 | PTK2B 0 | RAF1 = 0 | [1] 0

O=S(=O)(c1ccc(O)cc1O)N1Cc2cc(O)cc(O)c2C1 (10 µM)
inactive: MAPK1 = 0 | MAPK4 = 0 | MAPKAPK2 = 0 | MKNK1 = 0 | NTRK2 = 0 | NTRK3 = 0 | PAK4 = 0 | PBK 0 | PDGFRB 0 | PDK1 = 0 | PDPK1 = 0 | PIK4CA 0 | PIK4CB 0 | PLK1 = 0 | PRKAA1 = 0 | PRKCA 0 | PTK2 = 0 | PTK2B 0 | RAF1 = 0 | [1] 0

S=C(NCc1ccc2c(c1)OCO2)N1CCN(c2ncnc3c2oc2ccccc23)CC1 [Amuvatinib] (2.5 µM)
inactive: MAPK1 = 0 | MAPK4 = 0 | MAPKAPK2 = 0 | MKNK1 = 0 | NTRK2 = 0 | NTRK3 = 0 | PAK4 = 0 | PBK 0 | PDGFRB 0 | PDK1 = 0 | PDPK1 = 0 | PIK4CA 0 | PIK4CB 0 | PLK1 = 0 | PRKAA1 = 0 | PRKCA 0 | PTK2 = 0 | PTK2B 0 | RAF1 = 0 | [1] 0

Nc1nccc(Oc2ccc3c(C(=O)Nc4cccc(C(F)(F)F)c4)cccc3c2)n1 (10 µM)
inactive: MAPK1 = 0 | MAPK4 = 0 | MAPKAPK2 = 0 | MKNK1 = 0 | NTRK2 = 0 | NTRK3 = 0 | PAK4 = 0 | PBK 0 | PDGFRB 0 | PDK1 = 0 | PDPK1 = 0 | PIK4CA 0 | PIK4CB 0 | PLK1 = 0 | PRKAA1 = 0 | PRKCA 0 | PTK2 = 0 | PTK2B 0 | RAF1 = 0 | [1] 0

COc1c(O)cc(O)c2c(=O)cc(-c3ccccc3)oc12 [Wogonin] (10 µM)
inactive: MAPK1 = 0 | MAPK4 = 0 | MAPKAPK2 = 0 | MKNK1 = 0 | NTRK2 = 0 | NTRK3 = 0 | PAK4 = 0 | PBK 0 | PDGFRB 0 | PDK1 = 0 | PDPK1 = 0 | PIK4CA 0 | PIK4CB 0 | PLK1 = 0 | PRKAA1 = 0 | PRKCA 0 | PTK2 = 0 | PTK2B 0 | RAF1 = 0 | [1] 0

CC(C)(C)S(=O)(=O)c1cc2c(Nc3ccc4scnc4c3)ncnc2cc1OCCOP(=O)(O)O (2 µM)
inactive: MAPK1 = 0 | MAPK4 = 0 | MAPKAPK2 = 0 | MKNK1 = 0 | NTRK2 = 0 | NTRK3 = 0 | PAK4 = 0 | PBK 0 | PDGFRB 0 | PDK1 = 0 | PDPK1 = 0 | PIK4CA 0 | PIK4CB 0 | PLK1 = 0 | PRKAA1 = 0 | PRKCA 0 | PTK2 = 0 | PTK2B 0 | RAF1 = 0 | [1] 0

CS[C@@]1(C(=O)Nc2ccc3[nH]nc(-c4ccc(OC(C)C)nc4)c3c2)CCN(CC(=O)N2CC=C(c3ccc(-c4ncn(C)n4)cc3)CC2)C1 (2.5 µM)
inactive: MAPK1 = 0 | MAPK4 = 0 | MAPKAPK2 = 0 | MKNK1 = 0 | NTRK2 = 0 | NTRK3 = 0 | PAK4 = 0 | PBK 0 | PDGFRB 0 | PDK1 = 0 | PDPK1 = 0 | PIK4CA 0 | PIK4CB 0 | PLK1 = 0 | PRKAA1 = 0 | PRKCA 0 | PTK2 = 0 | PTK2B 0 | RAF1 = 0 | [1] 0

Cc1ccc(Nc2cc(N[C@@H]3CCCC[C@@H]3N)nnc2C(N)=O)nc1C (2 µM)
inactive: MAPK1 = 0 | MAPK4 = 0 | MAPKAPK2 = 0 | MKNK1 = 0 | NTRK2 = 0 | NTRK3 = 0 | PAK4 = 0 | PBK 0 | PDGFRB 0 | PDK1 = 0 | PDPK1 = 0 | PIK4CA 0 | PIK4CB 0 | PLK1 = 0 | PRKAA1 = 0 | PRKCA 0 | PTK2 = 0 | PTK2B 0 | RAF1 = 0 | [1] 0

O=C(CCl)c1c[nH]c2ccccc12 (2.5 µM)
inactive: MAPK1 = 0 | MAPK4 = 0 | MAPKAPK2 = 0 | MKNK1 = 0 | NTRK2 = 0 | NTRK3 = 0 | PAK4 = 0 | PBK 0 | PDGFRB 0 | PDK1 = 0 | PDPK1 = 0 | PIK4CA 0 | PIK4CB 0 | PLK1 = 0 | PRKAA1 = 0 | PRKCA 0 | PTK2 = 0 | PTK2B 0 | RAF1 = 0 | [1] 0

Cc1n[nH]c2ncc(C(=O)N3CCC[C@H]3c3ccc(Cl)cc3)cc12 (10 µM)
inactive: MAPK1 = 0 | MAPK4 = 0 | MAPKAPK2 = 0 | MKNK1 = 0 | NTRK2 = 0 | NTRK3 = 0 | PAK4 = 0 | PBK 0 | PDGFRB 0 | PDK1 = 0 | PDPK1 = 0 | PIK4CA 0 | PIK4CB 0 | PLK1 = 0 | PRKAA1 = 0 | PRKCA 0 | PTK2 = 0 | PTK2B 0 | RAF1 = 0 | [1] 0

Quoted at random: 2 compounds from above, in no set order.
CC(C)n1cnc2c(Nc3cccc(Cl)c3)nc(N[C@H]3CCCC[C@@H]3N)nc21 (2.5 µM)
inactive: MAPK1 = 0 | MAPK4 = 0 | MAPKAPK2 = 0 | MKNK1 = 0 | NTRK2 = 0 | NTRK3 = 0 | PAK4 = 0 | PBK 0 | PDGFRB 0 | PDK1 = 0 | PDPK1 = 0 | PIK4CA 0 | PIK4CB 0 | PLK1 = 0 | PRKAA1 = 0 | PRKCA 0 | PTK2 = 0 | PTK2B 0 | RAF1 = 0 | [1] 0

O=C(CCl)c1c[nH]c2ccccc12 (2.5 µM)
inactive: MAPK1 = 0 | MAPK4 = 0 | MAPKAPK2 = 0 | MKNK1 = 0 | NTRK2 = 0 | NTRK3 = 0 | PAK4 = 0 | PBK 0 | PDGFRB 0 | PDK1 = 0 | PDPK1 = 0 | PIK4CA 0 | PIK4CB 0 | PLK1 = 0 | PRKAA1 = 0 | PRKCA 0 | PTK2 = 0 | PTK2B 0 | RAF1 = 0 | [1] 0

(listing goes on)

Cn1cc(-c2nc(N[C@@H]3CCCC[C@@H]3N)c(F)c3c2C(=O)NC3)cn1 [TAK-659 (hydrochloride)] (2 µM)
inactive: MAPK1 = 0 | MAPK4 = 0 | MAPKAPK2 = 0 | MKNK1 = 0 | NTRK2 = 0 | NTRK3 = 0 | PAK4 = 0 | PBK 0 | PDGFRB 0 | PDK1 = 0 | PDPK1 = 0 | PIK4CA 0 | PIK4CB 0 | PLK1 = 0 | PRKAA1 = 0 | PRKCA 0 | PTK2 = 0 | PTK2B 0 | RAF1 = 0 | [1] 0
